Assay results as given in the supplement of paper PMC6411743.
± gives the standard deviation of the averaged measurements. This is a selection; strong and weak results do not stand in their true shares.

The chains behind the UniProt entries cited, without tags or fusion partners. Where a name states a change or a piece, a line headed by the entry shows the natural chain unless it says otherwise.
UniProt Q9BT40: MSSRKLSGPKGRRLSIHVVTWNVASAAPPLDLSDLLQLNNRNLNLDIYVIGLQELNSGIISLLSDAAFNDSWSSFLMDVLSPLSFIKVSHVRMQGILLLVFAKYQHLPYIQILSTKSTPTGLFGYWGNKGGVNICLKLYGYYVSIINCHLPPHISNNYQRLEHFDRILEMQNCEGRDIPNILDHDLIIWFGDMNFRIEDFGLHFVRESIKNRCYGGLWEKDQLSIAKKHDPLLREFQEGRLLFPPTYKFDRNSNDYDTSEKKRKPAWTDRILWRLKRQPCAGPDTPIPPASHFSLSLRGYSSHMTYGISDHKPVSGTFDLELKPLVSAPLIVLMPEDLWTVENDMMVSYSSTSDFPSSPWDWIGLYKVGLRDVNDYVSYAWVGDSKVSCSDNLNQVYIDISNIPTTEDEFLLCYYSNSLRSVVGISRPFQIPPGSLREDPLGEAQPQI
UniProt Q9BUN8: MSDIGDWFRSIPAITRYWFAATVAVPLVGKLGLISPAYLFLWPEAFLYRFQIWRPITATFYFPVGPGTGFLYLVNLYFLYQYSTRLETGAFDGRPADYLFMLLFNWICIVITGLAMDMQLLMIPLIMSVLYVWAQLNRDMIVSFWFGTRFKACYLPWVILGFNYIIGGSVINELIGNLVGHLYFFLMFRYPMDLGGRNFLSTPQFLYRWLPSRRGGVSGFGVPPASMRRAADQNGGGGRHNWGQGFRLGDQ
UniProt Q9GZV4: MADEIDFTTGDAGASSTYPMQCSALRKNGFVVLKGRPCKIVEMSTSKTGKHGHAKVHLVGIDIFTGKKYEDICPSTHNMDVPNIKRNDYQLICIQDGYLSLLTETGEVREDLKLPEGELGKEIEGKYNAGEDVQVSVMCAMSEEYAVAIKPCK
UniProt O94979: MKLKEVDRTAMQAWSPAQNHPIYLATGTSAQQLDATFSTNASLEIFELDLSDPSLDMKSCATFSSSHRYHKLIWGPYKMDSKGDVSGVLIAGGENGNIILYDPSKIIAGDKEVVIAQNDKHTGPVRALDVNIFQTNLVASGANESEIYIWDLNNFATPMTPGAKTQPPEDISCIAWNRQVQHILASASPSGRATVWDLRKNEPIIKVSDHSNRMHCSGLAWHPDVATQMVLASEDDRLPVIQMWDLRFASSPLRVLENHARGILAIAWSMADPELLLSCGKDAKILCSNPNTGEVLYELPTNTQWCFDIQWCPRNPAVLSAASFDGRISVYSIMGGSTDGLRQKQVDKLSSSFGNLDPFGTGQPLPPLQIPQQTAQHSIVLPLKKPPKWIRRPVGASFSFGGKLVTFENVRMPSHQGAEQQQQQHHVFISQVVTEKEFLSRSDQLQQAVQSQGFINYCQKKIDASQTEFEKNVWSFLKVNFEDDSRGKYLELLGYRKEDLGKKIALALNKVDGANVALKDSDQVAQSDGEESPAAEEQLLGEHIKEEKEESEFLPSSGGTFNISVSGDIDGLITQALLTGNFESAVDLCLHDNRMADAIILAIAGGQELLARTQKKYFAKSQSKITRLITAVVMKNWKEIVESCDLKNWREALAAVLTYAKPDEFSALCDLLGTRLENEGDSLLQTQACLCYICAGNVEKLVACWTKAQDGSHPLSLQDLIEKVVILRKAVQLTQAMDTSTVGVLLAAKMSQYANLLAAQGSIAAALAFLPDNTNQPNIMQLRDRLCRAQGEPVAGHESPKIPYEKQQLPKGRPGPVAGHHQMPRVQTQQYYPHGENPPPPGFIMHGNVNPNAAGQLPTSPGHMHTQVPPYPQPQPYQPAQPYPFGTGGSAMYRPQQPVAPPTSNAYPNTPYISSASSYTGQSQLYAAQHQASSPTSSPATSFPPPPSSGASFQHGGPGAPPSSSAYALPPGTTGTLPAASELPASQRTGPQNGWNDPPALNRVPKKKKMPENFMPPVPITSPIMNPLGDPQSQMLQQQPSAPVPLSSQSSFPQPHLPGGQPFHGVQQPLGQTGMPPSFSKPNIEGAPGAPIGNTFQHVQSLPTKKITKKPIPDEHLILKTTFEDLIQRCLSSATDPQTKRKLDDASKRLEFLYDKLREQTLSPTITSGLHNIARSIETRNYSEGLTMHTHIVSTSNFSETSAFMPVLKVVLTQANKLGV
UniProt Q15257: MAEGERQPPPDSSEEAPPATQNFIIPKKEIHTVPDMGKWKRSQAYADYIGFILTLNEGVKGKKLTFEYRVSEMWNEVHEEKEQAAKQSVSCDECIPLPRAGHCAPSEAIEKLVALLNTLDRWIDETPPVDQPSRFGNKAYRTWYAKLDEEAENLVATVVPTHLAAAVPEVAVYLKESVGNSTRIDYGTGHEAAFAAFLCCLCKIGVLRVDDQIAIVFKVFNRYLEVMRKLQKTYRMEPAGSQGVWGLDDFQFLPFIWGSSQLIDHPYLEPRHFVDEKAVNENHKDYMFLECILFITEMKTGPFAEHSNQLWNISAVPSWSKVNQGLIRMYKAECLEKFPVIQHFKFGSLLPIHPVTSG
UniProt O95861: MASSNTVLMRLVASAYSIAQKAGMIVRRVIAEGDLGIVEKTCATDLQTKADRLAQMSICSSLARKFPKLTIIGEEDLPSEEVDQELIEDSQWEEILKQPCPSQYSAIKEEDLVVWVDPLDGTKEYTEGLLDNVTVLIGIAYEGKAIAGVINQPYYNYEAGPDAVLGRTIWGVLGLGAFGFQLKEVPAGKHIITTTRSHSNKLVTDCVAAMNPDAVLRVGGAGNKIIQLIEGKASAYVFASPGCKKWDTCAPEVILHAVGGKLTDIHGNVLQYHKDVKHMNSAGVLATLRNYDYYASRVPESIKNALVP
UniProt Q9UL03, whole entry: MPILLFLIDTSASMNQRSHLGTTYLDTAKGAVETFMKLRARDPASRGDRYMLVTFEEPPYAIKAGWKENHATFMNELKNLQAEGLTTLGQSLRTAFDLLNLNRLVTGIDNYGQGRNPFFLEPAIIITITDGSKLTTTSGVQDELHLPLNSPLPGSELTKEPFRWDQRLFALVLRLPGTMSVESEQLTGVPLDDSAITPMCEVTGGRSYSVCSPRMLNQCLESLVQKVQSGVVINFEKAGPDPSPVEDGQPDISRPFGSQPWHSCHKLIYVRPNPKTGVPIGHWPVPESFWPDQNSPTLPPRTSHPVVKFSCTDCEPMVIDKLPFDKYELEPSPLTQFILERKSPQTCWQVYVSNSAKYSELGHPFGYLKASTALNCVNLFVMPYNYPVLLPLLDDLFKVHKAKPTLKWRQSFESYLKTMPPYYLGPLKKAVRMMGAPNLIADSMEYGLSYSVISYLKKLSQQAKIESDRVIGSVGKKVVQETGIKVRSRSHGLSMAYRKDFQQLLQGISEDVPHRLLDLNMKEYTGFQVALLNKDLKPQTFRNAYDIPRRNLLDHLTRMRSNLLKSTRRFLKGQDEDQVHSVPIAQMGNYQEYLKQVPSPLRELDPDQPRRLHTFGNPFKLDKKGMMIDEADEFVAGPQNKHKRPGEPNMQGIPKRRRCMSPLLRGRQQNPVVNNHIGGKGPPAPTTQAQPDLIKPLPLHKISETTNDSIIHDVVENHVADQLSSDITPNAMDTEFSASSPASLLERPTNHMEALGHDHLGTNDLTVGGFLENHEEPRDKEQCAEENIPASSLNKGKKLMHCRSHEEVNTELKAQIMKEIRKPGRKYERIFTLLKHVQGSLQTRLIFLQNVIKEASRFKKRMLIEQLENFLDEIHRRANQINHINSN
UniProt O15304: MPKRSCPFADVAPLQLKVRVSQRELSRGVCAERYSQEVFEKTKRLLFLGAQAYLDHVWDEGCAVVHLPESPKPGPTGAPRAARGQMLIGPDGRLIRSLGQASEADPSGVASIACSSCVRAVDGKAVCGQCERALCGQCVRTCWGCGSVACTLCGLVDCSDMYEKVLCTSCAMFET
UniProt P08174: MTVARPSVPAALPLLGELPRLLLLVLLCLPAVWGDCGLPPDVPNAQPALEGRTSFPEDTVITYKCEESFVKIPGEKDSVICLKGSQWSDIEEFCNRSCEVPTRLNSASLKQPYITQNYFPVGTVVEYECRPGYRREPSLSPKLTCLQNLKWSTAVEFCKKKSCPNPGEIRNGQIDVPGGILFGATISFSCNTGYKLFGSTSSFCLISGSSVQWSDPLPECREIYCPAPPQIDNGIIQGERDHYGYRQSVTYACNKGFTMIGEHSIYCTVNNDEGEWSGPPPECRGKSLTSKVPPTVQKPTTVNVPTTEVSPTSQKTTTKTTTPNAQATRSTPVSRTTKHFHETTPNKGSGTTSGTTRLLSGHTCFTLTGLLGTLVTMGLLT
UniProt Q53HC9: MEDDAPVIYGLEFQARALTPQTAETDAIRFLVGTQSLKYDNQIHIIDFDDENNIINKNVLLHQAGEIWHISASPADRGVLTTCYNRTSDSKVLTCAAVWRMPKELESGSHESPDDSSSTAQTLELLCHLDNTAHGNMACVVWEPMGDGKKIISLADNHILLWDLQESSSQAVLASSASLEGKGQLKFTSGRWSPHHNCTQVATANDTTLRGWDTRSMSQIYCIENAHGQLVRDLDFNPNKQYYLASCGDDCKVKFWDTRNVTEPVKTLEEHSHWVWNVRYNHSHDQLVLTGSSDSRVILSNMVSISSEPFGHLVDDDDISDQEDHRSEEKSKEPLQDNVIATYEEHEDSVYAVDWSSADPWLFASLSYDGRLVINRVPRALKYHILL
UniProt Q5T8D3: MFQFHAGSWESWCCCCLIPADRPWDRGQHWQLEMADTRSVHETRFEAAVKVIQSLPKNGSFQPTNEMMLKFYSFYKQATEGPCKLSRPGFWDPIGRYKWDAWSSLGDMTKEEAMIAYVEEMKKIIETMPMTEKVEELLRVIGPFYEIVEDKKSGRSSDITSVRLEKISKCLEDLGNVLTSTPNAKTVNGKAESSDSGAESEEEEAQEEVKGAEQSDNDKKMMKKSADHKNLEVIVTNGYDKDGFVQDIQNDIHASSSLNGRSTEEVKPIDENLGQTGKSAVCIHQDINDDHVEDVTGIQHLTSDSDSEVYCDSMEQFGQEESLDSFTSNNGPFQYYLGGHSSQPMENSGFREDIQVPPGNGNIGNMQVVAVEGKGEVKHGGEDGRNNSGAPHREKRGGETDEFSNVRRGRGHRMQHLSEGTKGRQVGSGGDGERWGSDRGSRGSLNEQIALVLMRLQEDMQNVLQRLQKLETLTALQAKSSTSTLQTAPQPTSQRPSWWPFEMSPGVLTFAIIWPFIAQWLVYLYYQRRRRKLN
UniProt P99999: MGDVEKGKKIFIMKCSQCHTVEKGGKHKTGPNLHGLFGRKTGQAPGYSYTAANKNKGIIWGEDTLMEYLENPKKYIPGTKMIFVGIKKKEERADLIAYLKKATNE
UniProt A6NDU8: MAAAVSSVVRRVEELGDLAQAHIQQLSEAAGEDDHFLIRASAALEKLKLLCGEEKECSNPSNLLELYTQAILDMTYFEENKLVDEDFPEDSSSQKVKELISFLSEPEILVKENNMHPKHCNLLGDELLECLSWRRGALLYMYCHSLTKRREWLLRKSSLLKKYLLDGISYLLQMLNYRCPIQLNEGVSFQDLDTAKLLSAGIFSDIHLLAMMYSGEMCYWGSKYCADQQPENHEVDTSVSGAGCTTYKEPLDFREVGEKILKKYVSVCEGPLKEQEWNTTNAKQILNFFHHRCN
UniProt Q9Y6A9: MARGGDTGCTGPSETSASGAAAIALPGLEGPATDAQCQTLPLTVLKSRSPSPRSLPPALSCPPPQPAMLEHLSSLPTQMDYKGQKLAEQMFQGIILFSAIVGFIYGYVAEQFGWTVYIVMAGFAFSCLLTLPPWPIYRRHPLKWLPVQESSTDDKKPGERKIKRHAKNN
UniProt O75832: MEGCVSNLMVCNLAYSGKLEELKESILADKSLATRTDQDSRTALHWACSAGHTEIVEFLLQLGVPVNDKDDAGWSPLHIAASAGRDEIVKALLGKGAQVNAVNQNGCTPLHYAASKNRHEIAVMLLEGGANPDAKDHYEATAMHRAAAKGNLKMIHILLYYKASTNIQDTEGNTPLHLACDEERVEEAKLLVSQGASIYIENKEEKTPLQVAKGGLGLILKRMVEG
UniProt P84101: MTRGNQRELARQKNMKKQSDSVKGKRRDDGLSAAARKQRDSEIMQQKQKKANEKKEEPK
UniProt Q16718, whole entry: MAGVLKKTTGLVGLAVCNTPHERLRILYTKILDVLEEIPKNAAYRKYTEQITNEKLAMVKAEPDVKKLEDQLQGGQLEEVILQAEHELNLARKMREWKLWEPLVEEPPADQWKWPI
UniProt Q13506: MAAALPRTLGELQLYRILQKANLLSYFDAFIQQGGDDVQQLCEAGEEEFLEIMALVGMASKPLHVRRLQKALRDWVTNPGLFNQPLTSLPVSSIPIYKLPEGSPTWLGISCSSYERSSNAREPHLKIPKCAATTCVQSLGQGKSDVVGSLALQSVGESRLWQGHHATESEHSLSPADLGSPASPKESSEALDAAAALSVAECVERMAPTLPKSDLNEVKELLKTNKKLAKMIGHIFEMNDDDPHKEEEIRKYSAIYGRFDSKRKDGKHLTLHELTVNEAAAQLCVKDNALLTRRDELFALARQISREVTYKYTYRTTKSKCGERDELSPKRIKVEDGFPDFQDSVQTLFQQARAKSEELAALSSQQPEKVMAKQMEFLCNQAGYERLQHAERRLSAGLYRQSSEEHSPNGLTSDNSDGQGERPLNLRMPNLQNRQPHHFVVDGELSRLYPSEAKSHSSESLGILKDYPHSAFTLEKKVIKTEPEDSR

Compound: Nc1ncnc2c1ncn2[C@@H]1O[C@H](COP(=O)(O)OP(=O)(O)NP(=O)(O)O)[C@@H](O)[C@H]1O [adenylyl imidodiphosphate]
Assay: NP40-soluble protein abundance relative to vehicle (solubility fold change) (ratio); higher = more soluble protein in presence of AMP-PNP
Procedure, shortened: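 Each value is a fold change relative to the detergent-processed vehicle, calculated per replicate from vsn-normalised intensities. Jurkat crude lysate received eight concentrations (0.1 to 10 mM) for 10 min at room temperature and 3 min at 37 °C, then was solubilised in 0.8% NP40 with benzonase (60 min, 4 °C). The ultracentrifuged supernatant was TMT-labelled and run by LC-MS/MS in three independent experiments.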

Target | NP40-soluble protein abundance (concentration: 1mM) | NP40-soluble protein abundance (concentration: 2mM) | NP40-soluble protein abundance (concentration: 4mM) | NP40-soluble protein abundance (concentration: 6mM) | NP40-soluble protein abundance (concentration: 8mM) | NP40-soluble protein abundance (concentration: 10mM)
E2QRD4 and related entries (UniProt Q6ZRQ5) | 0.9635 ± 0.0089 | 0.994 ± 0.0094 | 1.01 ± 0.05 | 0.9939 ± 0.0036 | 1.0175 ± 0.00054 | 1.01 ± 0.011
C9JZB0 and related entries (UniProt Q9BT40) | 0.985 ± 0.024 | 0.934 ± 0.045 | 0.9613 ± 0.0062 | 0.96 ± 0.015 | 1 ± 0.025 | 0.974 ± 0.019
B4E1G1 and related entries (UniProt Q9BUN8) | 0.989 ± 0.021 | 0.976 ± 0.011 | 0.975 ± 0.015 | 0.985 ± 0.02 | 0.972 ± 0.0099 | 1.01 ± 0.028
C9J381 and related entries (UniProt P20839) | 0.918 ± 0.04 | 0.859 ± 0.063 | 0.846 ± 0.11 | 0.856 ± 0.063 | 0.874 ± 0.049 | 0.891 ± 0.1
E5RHG8 and related entries (UniProt Q15369) | 1.05 ± 0.021 | 1.08 ± 0.031 | 0.99 ± 0.037 | 1.038 ± 0.0023 | 0.989 ± 0.011 | 1.01 ± 0.029
C9J4W5 and related entries (UniProt Q9GZV4) | 0.926 ± 0.091 | 0.916 ± 0.024 | 0.903 ± 0.095 | 0.924 ± 0.027 | 0.931 ± 0.079 | 0.873 ± 0.065
D6REX3 and related entries (UniProt O94979) | 0.98 ± 0.029 | 0.951 ± 0.039 | 0.967 ± 0.036 | 0.98 ± 0.015 | 0.971 ± 0.024 | 0.96 ± 0.048
A6PVN5 and related entries (UniProt Q15257) | 0.982 ± 0.05 | 0.97 ± 0.035 | 0.965 ± 0.024 | 1.05 ± 0.091 | 1.05 ± 0.081 | 1.02 ± 0.059
A6NF51 and related entries (UniProt O95861) | 0.996 ± 0.05 | 0.978 ± 0.077 | 1 ± 0.1 | 1.12 ± 0.1 | 1.13 ± 0.11 | 1.14 ± 0.1
B3KQH5 and related entries (UniProt Q9UL03) | 1 ± 0.035 | 0.997 ± 0.043 | 1.03 ± 0.041 | 1.05 ± 0.072 | 1.05 ± 0.057 | 1.06 ± 0.068
B4DTY2 and related entries (UniProt O15304) | 0.985 ± 0.0082 | 0.999 ± 0.049 | 0.968 ± 0.039 | 0.958 ± 0.04 | 0.967 ± 0.045 | 0.972 ± 0.059
UniProt A2VDJ0 and related entries | 0.97 ± 0.013 | 1.02 ± 0.024 | 1.01 ± 0.011 | 1 ± 0.059 | 0.997 ± 0.033 | 0.9811 ± 0.0073
B1AP13 and related entries (UniProt P08174) | 1.04 ± 0.046 | 1.03 ± 0.038 | 1.1 ± 0.062 | 1.09 ± 0.052 | 1.11 ± 0.072 | 1.15 ± 0.09
A8MUM1 and related entries (UniProt Q53HC9) | 0.9889 ± 0.0068 | 0.923 ± 0.098 | 0.931 ± 0.038 | 0.926 ± 0.039 | 0.93 ± 0.043 | 0.877 ± 0.048
B7Z2R7 and related entries (UniProt Q5T8D3) | 1 ± 0.021 | 1.05 ± 0.053 | 0.994 ± 0.052 | 0.981 ± 0.015 | 0.941 ± 0.017 | 0.982 ± 0.033
C9JFR7 and related entries (UniProt P99999) | 0.932 ± 0.042 | 1.01 ± 0.091 | 0.942 ± 0.045 | 1.03 ± 0.14 | 1.02 ± 0.055 | 1.03 ± 0.11
D6REA0 and related entries (UniProt O75879) | 0.962 ± 0.026 | 0.9665 ± 0.0091 | 0.968 ± 0.036 | 1.03 ± 0.028 | 0.986 ± 0.038 | 1.003 ± 0.0032
C5orf51 (UniProt A6NDU8) | 1.04 ± 0.014 | 1.03 ± 0.025 | 1.01 ± 0.025 | 0.9735 ± 0.0065 | 0.953 ± 0.017 | 0.95 ± 0.05
E5RGT2 and related entries (UniProt Q96MH6) | 0.992 ± 0.035 | 0.942 ± 0.076 | 0.999 ± 0.027 | 0.969 ± 0.046 | 1.01 ± 0.07 | 0.991 ± 0.049
UniProt A2RRP1 and related entries | 0.951 ± 0.05 | 0.867 ± 0.081 | 0.943 ± 0.043 | 0.91 ± 0.02 | 0.918 ± 0.051 | 0.887 ± 0.045
C9JYJ8 and related entries (UniProt Q9BWE0) | 0.991 ± 0.041 | 1.01 ± 0.043 | 1.02 ± 0.032 | 0.996 ± 0.026 | 1.01 ± 0.038 | 1.03 ± 0.06
C9JBL1 and related entries (UniProt Q9Y6A9) | 0.969 ± 0.013 | 0.976 ± 0.024 | 0.946 ± 0.045 | 1.01 ± 0.019 | 1.01 ± 0.028 | 1.01 ± 0.03
C9JNW5 and related entries (UniProt P83731) | 0.955 ± 0.053 | 0.987 ± 0.041 | 0.903 ± 0.064 | 0.92 ± 0.084 | 0.813 ± 0.057 | 0.976 ± 0.12
A6NFX8 and related entries (UniProt Q9UKK9) | 0.974 ± 0.024 | 0.91 ± 0.049 | 0.964 ± 0.034 | 0.989 ± 0.024 | 1.03 ± 0.041 | 0.982 ± 0.03
B1AK44 and related entries (UniProt Q9UI95) | 0.982 ± 0.016 | 0.99 ± 0.015 | 1.02 ± 0.02 | 0.996 ± 0.013 | 0.988 ± 0.011 | 0.995 ± 0.0082
B1AJY7 and related entries (UniProt O75832) | 0.98 ± 0.039 | 0.986 ± 0.03 | 0.952 ± 0.034 | 0.961 ± 0.033 | 0.942 ± 0.047 | 0.94 ± 0.036
B8ZZY7 and related entries (UniProt P84101) | 1.02 ± 0.053 | 1.05 ± 0.041 | 0.973 ± 0.035 | 0.929 ± 0.061 | 0.843 ± 0.046 | 0.954 ± 0.051
B1AL69 and related entries (UniProt Q7L3B6) | 0.999 ± 0.014 | 1.02 ± 0.036 | 0.967 ± 0.029 | 0.962 ± 0.017 | 0.955 ± 0.036 | 0.924 ± 0.034
C9IZN5 and related entries (UniProt Q16718) | 0.992 ± 0.064 | 0.934 ± 0.027 | 1.02 ± 0.051 | 0.893 ± 0.032 | 0.916 ± 0.038 | 0.803 ± 0.035
B8ZZS2 and related entries (UniProt Q13506) | 0.9966 ± 0.0056 | 1.02 ± 0.019 | 0.9788 ± 0.0084 | 1.024 ± 0.0073 | 1.01 ± 0.029 | 1.008 ± 0.0093

Some entries already given, limited to NP40-soluble protein abundance (concentration: 4mM), NP40-soluble protein abundance (concentration: 10mM) and NP40-soluble protein abundance (concentration: 2mM).
Target | NP40-soluble protein abundance (concentration: 4mM) | NP40-soluble protein abundance (concentration: 10mM) | NP40-soluble protein abundance (concentration: 2mM)
C9IZN5 and related entries (UniProt Q16718) | 1.02 ± 0.051 | 0.803 ± 0.035 | 0.934 ± 0.027
B8ZZS2 and related entries (UniProt Q13506) | 0.9788 ± 0.0084 | 1.008 ± 0.0093 | 1.02 ± 0.019
